{"source": "the supplement of paper PMC8728848", "binders": {"B1": {"name": "B936 (Bifidobacterium sp) (protein)", "chain": "MKNWKKAIALVASAAALVSVAACGPSNAGGSSDSGKKTVGFVAVGPEGGFRTANEKDIQKAFEDAGFDLTYSPTQNNDQQKQIQAFNKFVNDEVDAIILSSTEDSGWDDSLKKAAEAEIPVFTVDRNVDVKDAEAKKAIVAHIGPSNVWCGEQAAEFVNKNFPDGANGFILEGPAGLSVVKDRGTGWGNKVASNVKVLESQSANWSTDEAKTVTAGLLDKYKSDNPQFIFAQNDEMGLGAAQAVDAAGLKGKVKIITIDGTKNALQALVDGDLSYVIEYNPIFGKETAQAVKDYLDGKTVEKDIEIESKTFDAASAKEALDNNTRAY"}}, "experiment_in_all_cases": "glycan array binding signal (z-score within array); higher = stronger binding", "settings_in_all_cases": "glycan notation: IUPAC condensed, linker removed", "key": {"GalNAc(b1-3)Gal": {"biological_target": "GalNAc(b1-3)Gal", "method_in_brief": "(§1)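 Glycan array data came from 3228 arrays in the Consortium for Functional Glycomics database, and only arrays with an available protein sequence were kept. Glycan names were put into IUPAC-condensed notation, and columns mapping to the same glycan were averaged. The binding signal is a within-array Z-score, averaged across arrays of one protein sequence run at different concentrations or buffers and across linkers. A negative Z-score can be read as non-binding.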"}, "[1]": {"biological_target": "GalNAc(b1-3)Gal(a1-4)Gal(b1-4)GlcNAc", "method_in_brief": "as §1"}, "[2]": {"biological_target": "GalNAc(b1-3)Gal(a1-4)Gal(b1-4)GlcNAc(b1-3)Gal(b1-4)Glc", "method_in_brief": "as §1"}, "[3]": {"biological_target": "GalNAc(b1-3)Gal(a1-6)Gal(b1-4)Glc", "method_in_brief": "as §1"}, "GalNAc(b1-3)GalNAc": {"biological_target": "GalNAc(b1-3)GalNAc", "method_in_brief": "as §1"}, "GalNAc(b1-3)GlcNAc": {"biological_target": "GalNAc(b1-3)GlcNAc", "method_in_brief": "as §1"}, "GalNAc(b1-4)Gal(b1-4)Glc": {"biological_target": "GalNAc(b1-4)Gal(b1-4)Glc", "method_in_brief": "as §1"}, "GalNAc(b1-4)GlcNAc": {"biological_target": "GalNAc(b1-4)GlcNAc", "method_in_brief": "as §1"}, "[4]": {"biological_target": "GalNAc(b1-4)GlcNAc(b1-2)Man", "method_in_brief": "as §1"}, "[5]": {"biological_target": "GalNAc(b1-4)GlcNAc(b1-2)Man(a1-3)[GalNAc(b1-4)GlcNAc(b1-2)Man(a1-6)]Man(b1-4)GlcNAc(b1-4)GlcNAc", "method_in_brief": "as §1"}, "[6]": {"biological_target": "GalNAc(b1-4)GlcNAc(b1-3)GalNAc(b1-4)GlcNAc", "method_in_brief": "as §1"}, "GalNAc(b1-4)GlcNAc6S": {"biological_target": "GalNAc(b1-4)GlcNAc6S", "method_in_brief": "as §1"}, "GalNAc(b1-6)GalNAc": {"biological_target": "GalNAc(b1-6)GalNAc", "method_in_brief": "as §1"}, "GalNAc3S(b1-4)GlcNAc": {"biological_target": "GalNAc3S(b1-4)GlcNAc", "method_in_brief": "as §1"}, "GalNAc3S(b1-4)GlcNAc3S": {"biological_target": "GalNAc3S(b1-4)GlcNAc3S", "method_in_brief": "as §1"}, "[7]": {"biological_target": "GalNAc3S(b1-4)[Fuc(a1-3)]GlcNAc", "method_in_brief": "as §1"}, "GalNAc4S6S(b1-4)GlcNAc": {"biological_target": "GalNAc4S6S(b1-4)GlcNAc", "method_in_brief": "as §1"}, "GalNAc6S(b1-4)GlcNAc": {"biological_target": "GalNAc6S(b1-4)GlcNAc", "method_in_brief": "as §1"}, "Glc(a1-4)Glc": {"biological_target": "Glc(a1-4)Glc", "method_in_brief": "as §1"}, "[8]": {"biological_target": "Glc(a1-4)Glc(a1-4)Glc(a1-4)Glc", "method_in_brief": "as §1"}, "Glc(a1-6)Glc(a1-6)Glc": {"biological_target": "Glc(a1-6)Glc(a1-6)Glc", "method_in_brief": "as §1"}, "[9]": {"biological_target": "Glc(a1-6)Glc(a1-6)Glc(a1-6)Glc", "method_in_brief": "as §1"}, "Glc(b1-4)Glc": {"biological_target": "Glc(b1-4)Glc", "method_in_brief": "as §1"}, "Glc(b1-6)Glc": {"biological_target": "Glc(b1-6)Glc", "method_in_brief": "as §1"}, "GlcA(b1-3)Gal": {"biological_target": "GlcA(b1-3)Gal", "method_in_brief": "as §1"}, "GlcA(b1-3)GlcNAc": {"biological_target": "GlcA(b1-3)GlcNAc", "method_in_brief": "as §1"}, "GlcA(b1-6)Gal": {"biological_target": "GlcA(b1-6)Gal", "method_in_brief": "as §1"}, "[10]": {"biological_target": "GlcA3S(b1-3)Gal(b1-4)GlcNAc(b1-2)Man", "method_in_brief": "as §1"}, "[11]": {"biological_target": "GlcA3S(b1-3)Gal(b1-4)GlcNAc(b1-3)Gal(b1-4)Glc", "method_in_brief": "as §1"}, "[12]": {"biological_target": "GlcNAc(a1-3)Gal(b1-4)GlcNAc", "method_in_brief": "as §1"}, "[13]": {"biological_target": "GlcNAc(a1-4)Gal(b1-3)GlcNAc", "method_in_brief": "as §1"}, "[14]": {"biological_target": "GlcNAc(a1-4)Gal(b1-4)GalNAc", "method_in_brief": "as §1"}, "[15]": {"biological_target": "GlcNAc(a1-4)Gal(b1-4)GlcNAc", "method_in_brief": "as §1"}, "[16]": {"biological_target": "GlcNAc(a1-4)Gal(b1-4)GlcNAc(b1-3)Gal(b1-4)Glc", "method_in_brief": "as §1"}, "[17]": {"biological_target": "GlcNAc(a1-4)Gal(b1-4)GlcNAc(b1-3)Gal(b1-4)GlcNAc", "method_in_brief": "as §1"}, "[18]": {"biological_target": "GlcNAc(a1-4)Gal(b1-4)GlcNAc(b1-3)Gal(b1-4)GlcNAc(b1-3)Gal(b1-4)GlcNAc", "method_in_brief": "as §1"}, "[19]": {"biological_target": "GlcNAc(a1-4)Gal(b1-4)GlcNAc(b1-3)Gal(b1-4)[Fuc(a1-3)]GlcNAc(b1-3)Gal(b1-4)[Fuc(a1-3)]GlcNAc", "method_in_brief": "as §1"}, "[20]": {"biological_target": "GlcNAc(a1-6)Gal(b1-4)GlcNAc", "method_in_brief": "as §1"}}, "note": "The other results are listed elsewhere or left out.", "data": [{"binder": "B1", "values": [{"measurement": "glycan array binding signal (z-score)", "setting": "GalNAc(b1-3)Gal", "result": -0.999}, {"measurement": "glycan array binding signal (z-score)", "setting": "[1]", "result": 0.581}, {"measurement": "glycan array binding signal (z-score)", "setting": "[2]", "result": -0.076}, {"measurement": "glycan array binding signal (z-score)", "setting": "[3]", "result": -0.322}, {"measurement": "glycan array binding signal (z-score)", "setting": "GalNAc(b1-3)GalNAc", "result": 0.226}, {"measurement": "glycan array binding signal (z-score)", "setting": "GalNAc(b1-3)GlcNAc", "result": -0.942}, {"measurement": "glycan array binding signal (z-score)", "setting": "GalNAc(b1-4)Gal(b1-4)Glc", "result": 0.638}, {"measurement": "glycan array binding signal (z-score)", "setting": "GalNAc(b1-4)GlcNAc", "result": -0.353}, {"measurement": "glycan array binding signal (z-score)", "setting": "[4]", "result": -1.38}, {"measurement": "glycan array binding signal (z-score)", "setting": "[5]", "result": 3.25}, {"measurement": "glycan array binding signal (z-score)", "setting": "[6]", "result": 0.157}, {"measurement": "glycan array binding signal (z-score)", "setting": "GalNAc(b1-4)GlcNAc6S", "result": -0.802}, {"measurement": "glycan array binding signal (z-score)", "setting": "GalNAc(b1-6)GalNAc", "result": -0.914}, {"measurement": "glycan array binding signal (z-score)", "setting": "GalNAc3S(b1-4)GlcNAc", "result": 0.447}, {"measurement": "glycan array binding signal (z-score)", "setting": "GalNAc3S(b1-4)GlcNAc3S", "result": -0.472}, {"measurement": "glycan array binding signal (z-score)", "setting": "[7]", "result": -0.041}, {"measurement": "glycan array binding signal (z-score)", "setting": "GalNAc4S6S(b1-4)GlcNAc", "result": 0.039}, {"measurement": "glycan array binding signal (z-score)", "setting": "GalNAc6S(b1-4)GlcNAc", "result": -0.783}, {"measurement": "glycan array binding signal (z-score)", "setting": "Glc(a1-4)Glc", "result": -0.026}, {"measurement": "glycan array binding signal (z-score)", "setting": "[8]", "result": -0.12}, {"measurement": "glycan array binding signal (z-score)", "setting": "Glc(a1-6)Glc(a1-6)Glc", "result": 0.517}, {"measurement": "glycan array binding signal (z-score)", "setting": "[9]", "result": 0.382}, {"measurement": "glycan array binding signal (z-score)", "setting": "Glc(b1-4)Glc", "result": -0.472}, {"measurement": "glycan array binding signal (z-score)", "setting": "Glc(b1-6)Glc", "result": 0.035}, {"measurement": "glycan array binding signal (z-score)", "setting": "GlcA(b1-3)Gal", "result": -0.516}, {"measurement": "glycan array binding signal (z-score)", "setting": "GlcA(b1-3)GlcNAc", "result": -0.008}, {"measurement": "glycan array binding signal (z-score)", "setting": "GlcA(b1-6)Gal", "result": -0.035}, {"measurement": "glycan array binding signal (z-score)", "setting": "[10]", "result": 0.095}, {"measurement": "glycan array binding signal (z-score)", "setting": "[11]", "result": -0.991}, {"measurement": "glycan array binding signal (z-score)", "setting": "[12]", "result": 0.799}, {"measurement": "glycan array binding signal (z-score)", "setting": "[13]", "result": -0.409}, {"measurement": "glycan array binding signal (z-score)", "setting": "[14]", "result": 0.209}, {"measurement": "glycan array binding signal (z-score)", "setting": "[15]", "result": -0.584}, {"measurement": "glycan array binding signal (z-score)", "setting": "[16]", "result": -1.19}, {"measurement": "glycan array binding signal (z-score)", "setting": "[17]", "result": -0.227}, {"measurement": "glycan array binding signal (z-score)", "setting": "[18]", "result": -0.435}, {"measurement": "glycan array binding signal (z-score)", "setting": "[19]", "result": 0.428}, {"measurement": "glycan array binding signal (z-score)", "setting": "[20]", "result": -0.288}]}]}
